In the supplement of paper PMC10338343:
± gives the standard deviation. The list shows a part of the results, in another mix than the full data. Many entries were measured with a wide error. This is one part of the list.

Assays:
[1] = test system: MILI (PIWIL2) piRISC loaded with L1MC piRNA (26 nt); assay: pre-steady-state target cleavage rate (min^-1); higher = faster piRNA-guided slicing of the target; details: guide: L1MC piRNA 5'p-UAACUAAAUACUAUGCAAGCUGUAGG
Procedure, shortened: (§1)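 Using HEPES–potassium acetate buffer at 33 °C, 1 nM active affinity-purified piRISC with a single synthetic guide was mixed with 0.1 nM transcribed, DNA-blocked target RNA library for 0–8 or 0–960 min, with or without 500 nM GTSF1 partner protein. Uncleaved targets were sequenced and normalised to depth and to weakly complementary targets, and three trials were pooled with k3 capped at 0.0001 min^-1. A burst-and-steady-state fit gave the pre-steady-state cleavage rate.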

[2] = test system: MIWI (PIWIL1) piRISC loaded with L1MC piRNA (30 nt); assay: as above; details: guide: L1MC piRNA 5'p-UAACUAAAUACUAUGCAAGCUGUAGGUCCU
Procedure, shortened: as §1

[3] = test system: EfPiwi piRISC loaded with L1MC piRNA (26 nt); assay: pre-steady-state target cleavage rate (min^-1); guide: L1MC piRNA 5'p-UAACUAAAUACUAUGCAAGCUGUAGG; MIWI and MILI are mouse PIWI proteins and EfPiwi is from a freshwater sponge; tags in brackets are library labels; higher = faster piRNA-guided slicing of the target
Procedure, shortened: as §1

[4] = auxiliary factor: none (no GTSF1)
[5] = auxiliary factor: 500 nM Ephydatia muelleri Gtsf1
[6] = auxiliary factor: 500 nM mouse GTSF1
[7] = auxiliary factor: none (no Gtsf1)

Row | Sequence | pre-steady-state target cleavage rate [1, 4] | pre-steady-state target cleavage rate [2, 4] | pre-steady-state target cleavage rate [3, 5] | pre-steady-state target cleavage rate [2, 6] | pre-steady-state target cleavage rate [3, 7] | pre-steady-state target cleavage rate [1, 6]
1 | UCCUGGAUGUGCUUGCAUUCUAUUUAGUUA | 0.00115 ± 0.0053 | 0.00162 ± 0.0045 | 0.000449 ± 0.0068 | – | – | –
2 | UCCUGGAUGUCGAUGCAUAGUAUUUAUUUA | 0.000945 ± 0.0063 | – | 0.000255 ± 0.03 | 0.0013 ± 0.0083 | – | –
3 | UCCUCCUACAGCUUGGUAAGUAUUUACAAA | 0.000601 ± 0.0078 | 0.000403 ± 0.009 | – | – | 0.000543 ± 0.0089 | –
4 | UCCUGGAUGAGCUAGCAUAGUAUUUAGAAA | 0.00129 ± 0.005 | 0.00104 ± 0.0044 | – | – | 0.0005 ± 0.016 | –
5 | UCCUGGAUGAGCUUGCAUUCUAUUUACAAA | 0.00053 ± 0.014 | 0.000261 ± 0.015 | 0.000385 ± 0.0086 | – | – | –
6 | UCCUGGAUCAGCUUGCAUUCAAUUUACAAA | 0.000271 ± 0.019 | 0.000714 ± 0.0067 | 0.000383 ± 0.0082 | – | – | –
7 | UCCUGGAUCAGCUUGCAUAGUAAAAACAAA | 0.00134 ± 0.0049 | 0.00165 ± 0.0056 | – | – | 0.000182 ± 0.021 | –
8 | UCCUGGAUGACGUUGCAUAGUAUUUAGUAA | 0.00223 ± 0.0048 | 0.00268 ± 0.003 | 0.00296 ± 0.0042 | – | – | –
9 | UCCUGGAACAGGUUCCAUAGUAUUUAGUUA | 0.000527 ± 0.015 | 0.000242 ± 0.025 | 0.00255 ± 0.0024 | – | – | –
10 | UCCUGGUACAGCUUCGAUAGUAUUUAGAAA | 0.00122 ± 0.0053 | 0.00108 ± 0.0067 | 0.0034 ± 0.0036 | – | – | –
11 | UCCUGGAUCAGCUUCGAUAGUAUUUAGAAA | – | 0.000867 ± 0.006 | 0.00107 ± 0.005 | – | – | 0.0608 ± 0.017
12 | UCCUGGAACAGCUUGCAUUCAAUUUUCAAA | 0.000956 ± 0.0049 | 0.000817 ± 0.0074 | 0.000794 ± 0.0051 | – | – | –
13 | UCCUGGAUGUCCUUGGUAAGUAUUUAGUUA | 0.00115 ± 0.0057 | 0.000892 ± 0.0094 | 0.000287 ± 0.012 | – | – | –
14 | UCCUGGUACAGCUUGCAUAGUAAUAAGUUA | 0.00246 ± 0.0031 | 0.00209 ± 0.0028 | 0.00546 ± 0.0031 | – | – | –
15 | UCCUGGAUGUCGAACCAUAGUAUUAGUUA | < 0.0001 | 0.000433 ± 0.01 | 0.000118 ± 0.035 | – | – | –
16 | UCCUGGAACAGCUUGCAUUAGUAUUUAGUUA | 0.00137 ± 0.0043 | 0.00234 ± 0.0036 | 0.000539 ± 0.012 | – | – | –
17 | UCCUGGAACAGCUUCGUUAGUAUUUAGAAA | 0.000489 ± 0.011 | 0.000672 ± 0.0098 | – | – | 0.00033 ± 0.018 | –
18 | UCCUCCUAGAGCUUCCAUAGUAUUUAGUUA | 0.00118 ± 0.0046 | 0.0022 ± 0.0027 | – | – | 0.000373 ± 0.012 | –
19 | UCCUGCUAGAGCUUGCAUAGUAUUUUCAAA | 0.00123 ± 0.0053 | 0.00187 ± 0.0042 | 0.00315 ± 0.0025 | – | – | –
20 | UCCUGGAUCAGCUUGCAUAGUUAUUAGAAA | 0.000763 ± 0.0079 | 0.00131 ± 0.0049 | 0.00282 ± 0.0036 | – | – | –
21 | UCCUCCUACAGCUUGCAAUGUAUUUAGUAA | 0.00225 ± 0.0029 | 0.00233 ± 0.0025 | 0.00181 ± 0.0047 | – | – | –
22 | UCCUGGAUGUCCUUGCAUGAGUAUUUAGUUA | 0.00137 ± 0.0068 | 0.000724 ± 0.0087 | 0.000446 ± 0.008 | – | – | –
23 | UCCUGCUACUGCUUGCAUAGUAUUUUCAAA | 0.000932 ± 0.0054 | 0.00201 ± 0.0034 | 0.0014 ± 0.0031 | – | – | –
24 | UCCUGGAUGUCGAUCAUAGUAUUUAGUUA | 0.00113 ± 0.0037 | 0.000611 ± 0.0073 | 0.000492 ± 0.0073 | – | – | –
25 | UCCUGGAUGUCGAUGGAAAGUAUUUAGUUA | 0.00039 ± 0.0098 | 0.000482 ± 0.015 | 0.000494 ± 0.011 | – | – | –
26 | UCCUGGAUGUGCAUGCAUAGAAUUUAGUUA | 0.00234 ± 0.0035 | 0.00139 ± 0.0058 | 0.00147 ± 0.0042 | – | – | –

Looked up one by one from above:
Row | Sequence | pre-steady-state target cleavage rate [1, 4] | pre-steady-state target cleavage rate [2, 4] | pre-steady-state target cleavage rate [3, 5] | pre-steady-state target cleavage rate [2, 6] | pre-steady-state target cleavage rate [3, 7] | pre-steady-state target cleavage rate [1, 6]
9 | UCCUGGAACAGGUUCCAUAGUAUUUAGUUA | 0.000527 ± 0.015 | 0.000242 ± 0.025 | 0.00255 ± 0.0024 | – | – | –
14 | UCCUGGUACAGCUUGCAUAGUAAUAAGUUA | 0.00246 ± 0.0031 | 0.00209 ± 0.0028 | 0.00546 ± 0.0031 | – | – | –
